PubChem BioAssay AID1224826, NIAID – 2016
This is a random part of about 17,000 deposited reagents. About 1,110 of all reagents (6.6%) were called active. 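Active means lowered or raised reporter signal; replicate intensities are raw and not normalised per plate.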 Entries without a mark were called inactive. The numbers tell different reagents against one gene apart.

Screen: 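Genes that change LPS-induced Tnf promoter activity in mouse macrophages when knocked down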 (primary screen)
Cells: RAW264.7 G9 macrophages from mouse bearing reporters for p65 (GFP) and the Tnf promoter (mCherry)
Reagents: siRNA pool against mouse genes, 100 nM
Duration: 16 h of LPS stimulation, after 2 days of siRNA transfection
Treatment: bacterial lipopolysaccharide (Salmonella minnesota R595), 10 ng/ml
Measurement: 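Imaged Tnf reporter mCherry in nuclei, minus background, normalised per plate to the median and expressed as robust z-scores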
Reading the numbers: Tnf reporter robust z-score: higher = stronger Tnf promoter reporter signal after LPS; Tnf reporter intensity: higher = stronger Tnf promoter reporter signal
Hit rule: 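Called active when robust z-score is at most -1.3, matching the median of the Tlr4 knock-down control, or over 3; control wells and wells with under 50 cells never active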
Meaning of the calls: active = Tnf reporter clearly lowered or raised; inactive = no clear change in Tnf reporter

no.	gene knocked down	reagent	Tnf reporter robust z-score	fewer than 50 cells in well	Tnf reporter intensity, replicate 1	Tnf reporter intensity, replicate 2
1	Nfe2l2 (GeneID 18024)	1	-0.01	enough cells in well	297	176
2	Ferry3 (GeneID 28040)	1	1.64	enough cells in well	328	221
3	Actr1b (GeneID 226977)	1	2.1	enough cells in well	277	301
4	Srsf5 (GeneID 20384)	1	2.63	enough cells in well	157	227
5	Tmem9 (GeneID 66241)	1		fewer than 50 cells per well; well left out of calls	71.7	54.7
6	Opcml (GeneID 330908)	1		fewer than 50 cells per well; well left out of calls	181	95.9
7	Clasp2 (GeneID 76499)	1	-0.87	enough cells in well	195	127
8	Or5a1 (GeneID 258677)	1		fewer than 50 cells per well; well left out of calls	19.2	22.4
9	Msl3 (GeneID 17692)	1	-1.01	enough cells in well	147	37.7
10	Marco (GeneID 17167)	1	-0.21	enough cells in well	254	183
11	Mas1 (GeneID 17171)	1	-0.44	enough cells in well	191	237
12	Slc25a14 (GeneID 20523)	1	1.37	enough cells in well	119	179
13	Ywhab (GeneID 54401)	1	-0.7	enough cells in well	171	180
14	Hibch (GeneID 227095)	1	0.14	enough cells in well	244	202
15	Tmem63c (GeneID 217733)	1	1.49	enough cells in well	245	311
16	Mb21d2 (GeneID 239796)	1	-0.7	enough cells in well	97.3	123
17	Fzd9 (GeneID 14371)	1	-0.06	enough cells in well	185	334
18	Gm11961 (GeneID 327860)	1	0.2	enough cells in well	173	175
19	Rad51b (GeneID 19363)	1	-0.28	enough cells in well	145	90
20	Pop7 (GeneID 74097)	1	-1.43 (active)	enough cells in well	132	95.8
21	Slc17a5 (GeneID 235504)	1	0.12	enough cells in well	230	148
22	Taar5 (GeneID 215854)	1	-1.11	enough cells in well	118	212
23	Npffr1 (GeneID 237362)	1	-1.17	enough cells in well	130	179
24	Uap1 (GeneID 107652)	1	-0.51	enough cells in well	99.3	47.1
25	H2-Ab1 (GeneID 14961)	1		fewer than 50 cells per well; well left out of calls	147	54.9
26	H2-Ab1 (GeneID 14961)	2	-0.32	enough cells in well	100	128
27	Vmn2r-ps54 (GeneID 75835)	1	-0.68	enough cells in well	196	38.7
28	Txndc9 (GeneID 98258)	1		fewer than 50 cells per well; well left out of calls	65.2	40.2
29	Phf19 (GeneID 74016)	1		fewer than 50 cells per well; well left out of calls	149	123
30	Cd99 (GeneID 673094)	1		fewer than 50 cells per well; well left out of calls	126	49.8
31	Atp6ap2 (GeneID 70495)	1	-0.86	enough cells in well	117	121
32	Myl2 (GeneID 17906)	1	-0.13	enough cells in well	245	202
33	Ceacam2 (GeneID 26367)	1	1.56	enough cells in well	217	315
34	Psmb9 (GeneID 16912)	1	-0.17	enough cells in well	238	176
35	Scyl2 (GeneID 213326)	1	-1.06	enough cells in well	131	96.6
36	Or10x1 (GeneID 258238)	1	0.45	enough cells in well	113	74.7
37	Acsm2 (GeneID 233799)	1	-0.92	enough cells in well	131	156
38	Or4n5 (GeneID 258487)	1	0.09	enough cells in well	102	120

A run of entries from the list above, as a working copy:
no.	gene knocked down	reagent	Tnf reporter robust z-score	fewer than 50 cells in well	Tnf reporter intensity, replicate 1	Tnf reporter intensity, replicate 2
2	Ferry3 (GeneID 28040)	1	1.64	enough cells in well	328	221
3	Actr1b (GeneID 226977)	1	2.1	enough cells in well	277	301
4	Srsf5 (GeneID 20384)	1	2.63	enough cells in well	157	227
5	Tmem9 (GeneID 66241)	1		fewer than 50 cells per well; well left out of calls	71.7	54.7
6	Opcml (GeneID 330908)	1		fewer than 50 cells per well; well left out of calls	181	95.9

More reagents follow:
no.	gene knocked down	reagent	Tnf reporter robust z-score	fewer than 50 cells in well	Tnf reporter intensity, replicate 1	Tnf reporter intensity, replicate 2
39	Trim2 (GeneID 80890)	1	4.34 (active)	enough cells in well	270	247
40	Gadd45g (GeneID 23882)	1	-1.12	enough cells in well	172	135
41	Or52u1 (GeneID 258377)	1	-0.15	enough cells in well	95.6	109
42	Naip2 (GeneID 17948)	1	0.28	enough cells in well	141	149
43	Ssr2 (GeneID 66256)	1	0.11	enough cells in well	302	213
44	Stac (GeneID 20840)	1	-0.69	enough cells in well	202	176
45	Frmd3 (GeneID 242506)	1	-0.94	enough cells in well	175	88.9
46	A930018M24Rik (GeneID 328399)	1	-0.24	enough cells in well	143	156
47	Atf7 (GeneID 223922)	1	-0.2	enough cells in well	124	166
48	Lsm4 (GeneID 50783)	1	2.05	enough cells in well	287	276
49	Parp16 (GeneID 214424)	1		fewer than 50 cells per well; well left out of calls	21.2	41.1
50	Glrx3 (GeneID 30926)	1	0.02	enough cells in well	119	124
51	Or6c207 (GeneID 258537)	1	2.09	enough cells in well	176	190
52	Pfdn2 (GeneID 18637)	1	0.37	enough cells in well	282	196
53	Rnf17 (GeneID 30054)	1	0.83	enough cells in well	171	156
54	Mdh1b (GeneID 76668)	1	-0.67	enough cells in well	132	64
55	Lrrc4b (GeneID 272381)	1	0.75	enough cells in well	201	214
56	Slc37a3 (GeneID 72144)	1		fewer than 50 cells per well; well left out of calls	1.88	82.6
57	Rundc3a (GeneID 51799)	1	0.42	enough cells in well	343	241
58	Rgl2 (GeneID 19732)	1	-0.41	enough cells in well	270	174
